Test results as given in publication PMC10480782.
These are yes or no findings as the source states them, for the method shown. Binding seen in cells or lysates may run through a third protein. Some results given as binding are weak or reduced against the parent protein; the word gives no strength. For part of these data: Sequences can lack the tags named with a protein.

Protein sequences, listed by entry. Tags and fused reporters are not part of them.
UniProt P52294: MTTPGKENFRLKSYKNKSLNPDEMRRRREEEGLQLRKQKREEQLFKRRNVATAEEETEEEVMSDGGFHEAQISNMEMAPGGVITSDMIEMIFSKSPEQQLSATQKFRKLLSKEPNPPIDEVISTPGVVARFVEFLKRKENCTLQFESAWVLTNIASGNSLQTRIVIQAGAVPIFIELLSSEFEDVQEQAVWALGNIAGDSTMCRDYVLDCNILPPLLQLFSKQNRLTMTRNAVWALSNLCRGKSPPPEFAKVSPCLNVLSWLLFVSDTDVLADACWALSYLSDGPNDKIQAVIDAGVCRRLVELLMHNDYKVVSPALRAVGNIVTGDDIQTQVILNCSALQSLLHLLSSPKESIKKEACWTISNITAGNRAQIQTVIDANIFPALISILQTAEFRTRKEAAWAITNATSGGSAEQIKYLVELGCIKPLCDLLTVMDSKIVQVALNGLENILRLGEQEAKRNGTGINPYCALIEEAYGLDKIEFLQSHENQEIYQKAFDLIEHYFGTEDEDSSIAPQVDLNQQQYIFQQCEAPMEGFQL

T1: Flag-TBK1 (tank-binding kinase 1) (UniProt Q9UHD2)
T1 sequence: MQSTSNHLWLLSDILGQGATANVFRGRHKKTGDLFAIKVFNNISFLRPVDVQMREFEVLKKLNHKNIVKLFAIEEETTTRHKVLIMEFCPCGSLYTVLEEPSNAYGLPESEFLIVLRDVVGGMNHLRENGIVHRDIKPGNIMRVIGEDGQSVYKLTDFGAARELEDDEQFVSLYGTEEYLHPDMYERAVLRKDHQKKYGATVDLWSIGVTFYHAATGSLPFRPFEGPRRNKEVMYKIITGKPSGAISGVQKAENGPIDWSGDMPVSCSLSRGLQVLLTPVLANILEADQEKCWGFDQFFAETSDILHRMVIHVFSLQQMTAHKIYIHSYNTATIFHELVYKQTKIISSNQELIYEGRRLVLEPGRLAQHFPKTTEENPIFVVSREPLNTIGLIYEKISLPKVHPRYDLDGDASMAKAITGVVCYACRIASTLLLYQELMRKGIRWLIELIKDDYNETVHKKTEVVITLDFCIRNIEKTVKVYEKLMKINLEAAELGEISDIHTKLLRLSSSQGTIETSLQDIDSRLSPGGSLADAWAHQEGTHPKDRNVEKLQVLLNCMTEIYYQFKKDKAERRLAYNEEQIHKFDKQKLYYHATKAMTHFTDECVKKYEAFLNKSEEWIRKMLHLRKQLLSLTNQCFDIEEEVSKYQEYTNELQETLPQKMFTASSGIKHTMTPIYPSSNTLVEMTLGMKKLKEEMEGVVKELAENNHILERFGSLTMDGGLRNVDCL


Assays:
Test in all cases: co-IP
[1] = molecular target: Flag-KPNA1 (karyopherin α1) (UniProt P52294)
[2] = molecular target: Flag-tagged NuTF2 (UniProt P61970)
[3] = molecular target: T1, Flag-TBK1 (tank-binding kinase 1)

Molecule | binding [1] | binding [2] | binding [3]
HA-Nsp15 (SARS-CoV-2 Nsp15) (from UniProt P0DTD1) | binds | no binding | 
EGFP-IRF3 (human IRF3 in pEGFP-C1) (protein, UniProt Q14653 1-427) MGTPKPRILPWLVSQLDLGQLEGVAWVNKSRTRFRIPWKHGLRQDAQQEDFGIFQAWAEATGAYVPGRDKPDLPTWKRNFRSALNRKEGLRLAEDRSKDPHDPHKIYEFVNSGVGDFSQPDTSPDTNGGGSTSDTQEDILDELLGNMVLAPLPDPGPPSLAVAPEPCPQPLRSPSLDNPTPFPNLGPSENPLKRLLVPGEEWEFEVTAFYRGRQVFQQTISCPEGLRLVGSEVGDRTLPGWPVTLPDPGMSLTDRGVMSYVRHVLSCLGGGLALWRAGQWLWAQRLGHCHTYWAVSEELLPNSGHGPDGEVPKDKEGGVFDLGPFIVDLITFTEGSGRSPRYALWFCVGESWPQDQPWTKRLVMVKVVPTCLRALVEMARVGGASSLENTVDLHISNSHPLSLTSDQYKAYLQDLVEGMDFQGPGES |  |  | binds
